Assay results from US6210945.
For at least one entry, the source does not settle the construct or the ends of the probe. For part of these data: Protein sequences can lack the tags named with them.

Columns and labels:
[1] = molecular target: T1, MjaV methylase (M.MjaV) (Methanococcus jannaschii) (UniProt Q58893); assay: activity in cells; conditions: plasmid from expressing cells completely modified against RsaI digestion; protein in cells; only the motif is given
T1 sequence (looked up, limits assumed): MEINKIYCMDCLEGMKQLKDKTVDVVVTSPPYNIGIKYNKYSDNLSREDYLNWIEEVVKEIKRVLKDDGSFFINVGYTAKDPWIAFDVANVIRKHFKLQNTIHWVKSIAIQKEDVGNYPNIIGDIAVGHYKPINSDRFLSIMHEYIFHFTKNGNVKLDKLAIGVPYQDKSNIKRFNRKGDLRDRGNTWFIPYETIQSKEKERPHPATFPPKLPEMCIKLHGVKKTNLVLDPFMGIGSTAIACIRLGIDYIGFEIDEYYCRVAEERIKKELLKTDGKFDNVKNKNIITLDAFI

[2] = tested on: RsaI restriction endonuclease (R.RsaI) (Rhodopseudomonas sphaeroides); assay: enzyme reaction in vitro; conditions: clarified extract of IPTG-induced cells, 1 ug lambda DNA in 50 ul, 37 C 1 h; protein in a lysate after overexpression; only the motif is given
[3] = tested on: RsaI methylase (M.RsaI) (Rhodopseudomonas sphaeroides); assay: activity in cells; conditions: plasmid from expressing cells completely modified against RsaI digestion; protein in cells; only the motif is given

GTAC (double strand) [pSX20-mjaVM plasmid DNA (RsaI sites GTAC)]
activity on this sequence [1]: active

GTAC (double strand) [lambda DNA (RsaI sites GTAC)]
activity on this sequence [2]: active

GTAC (double strand) [pIH919-rsaIM plasmid DNA (RsaI sites GTAC)]
activity on this sequence [3]: active
